Some of the results follow. These are further read-outs of the screen, such as a control signal, another cell line or another target. No call is given for them. Compounds called inactive in the main read-out are mostly missing here. Words in brackets tell the shape of the fitted curve; partial curves, single points and poor fits give uncertain potencies.
Experiment: qHTS Assay to Find Inhibitors of Chronic Active B-Cell Receptor Signaling
Conditions: ABC-DLBCL IkBa-CBG/CBR reporter, luminescence ratio (green luciferase fused to IkBa over red control in TMD8 lymphoma cells), 4 h
Method in brief: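 TMD8 human ABC-DLBCL cells with doxycycline-inducible IκBα–green luciferase fusion and unfused red luciferase, in 0.5% FBS medium; compounds up to 46 uM, 4 h at 37C. Green/red luminescence ratio, filter-overlap corrected, fitted to concentration-response curves.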

[1] = measured here: CBR red luminescence, cell number
[2] = measured here: IkBa-CBG green luminescence

| Compound | AC50 [1] | AC50 [2] |
| --- | --- | --- |
| COc1ccc(C(CNC(=O)c2ccc(-n3cnnn3)cc2)N2CCOCC2)cc1 (stereo unspecified) | 3.16 µM [rising, partial curve, poor fit] |  |
| NC(=O)CCCn1c(C(=O)c2ccc(Cl)cc2)c2ccc(C(F)(F)F)cc2[n+]1[O-] | 1.03 µM [falling, full curve, poor fit] |  |
| COc1cc(NC(=O)CSc2nnnn2C2CCCC2)cc(OC)c1 | 20 µM [rising, single point] |  |
| CCc1ccc(NC(=O)c2cc(Br)ccc2Br)cc1 | 7.08 µM [falling, partial curve] |  |
| CCOc1ccccc1N1CSC2=C(C#N)C(c3c(OC)ccc4ccccc34)CC(=O)N2C1 (stereo unspecified) |  | 14.1 µM [falling, partial curve, poor fit] |
| CC(C)(C)OC(=O)NCC12C=CC(O1)C1C(=O)N(Cc3ccccc3)C(=O)C12 (stereo unspecified) | 2.91 µM [falling, single point] |  |
| CCOc1ccc(Nc2nc3ccccc3n3cnnc23)cc1 | 2.82 µM [rising, full curve, poor fit] |  |
| CCCCN1Cc2cc(C(=O)c3cc(OC)ccc3O)cnc2NC1=O | 0.708 µM [rising, full curve] |  |
| CCCCOc1ccc(C(=O)N/C(=C/C=C/c2ccccc2)C(=O)NCCO)cc1 | 20.6 µM [rising, single point] | 25.9 µM [falling, partial curve, poor fit] |
| CCOC(=O)Cn1ccc(NC(=O)COc2ccc(F)cc2)n1 | 10 µM [falling, partial curve] |  |
| Cc1ccc(/C=C/C(=O)NCCc2cccc(Cl)c2)o1 | 22.4 µM [falling, single point] |  |
| COc1ccc(/C=C/C(=O)Nc2ccccc2C(F)(F)F)cc1 | 2.06 µM [falling, full curve] |  |
| CC[C@@H]1CC=C[C@H]2[C@H]1C(=O)N(Cc1ccccc1)[C@H]2c1ccoc1 | 35.5 µM [falling, single point] |  |
| COc1cc2nc(Nc3cccc(F)c3)nc(N)c2cc1OC | 35.5 µM [falling, single point] |  |
| COc1cc(NC(=O)CSc2nc3c(c(=O)n(C)c(=O)n3C)n2C)cc(OC)c1 | 12.6 µM [falling, partial curve, poor fit] |  |
| COc1ccc(/C=N/NC(=O)c2cccc(Br)c2)cc1Cn1cc(Cl)cn1 | 10 µM [falling, partial curve] |  |
| COc1cc(NC(=O)C2C3C=CC(C3)C2C(=O)O)ccc1NC(=O)c1ccccc1 (stereo unspecified) | 35.5 µM [falling, single point] |  |
| c1ccc(SCc2nc(-c3cccnc3)no2)cc1 | 0.58 µM [falling, full curve, poor fit] |  |
| CC(=O)Nc1ccc(NC(=O)c2ccccc2C)cc1 | 8.2 µM [falling, partial curve, poor fit] |  |
| NC(=O)c1ccsc1NC(=O)COC(=O)CCCOc1ccccc1 | 2.31 µM [falling, partial curve, poor fit] |  |
| O=C(Nc1ccc(Cl)cc1)NC1CCCC1Cc1ccco1 (stereo unspecified) | 4.11 µM [falling, single point] |  |

| Compound | AC50 [1] | AC50 [2] |
| --- | --- | --- |
| S=C(Nc1ccc2nsnc2c1)NC1CCCCC1 | 16.4 µM [falling, single point] |  |
| COc1cc(/C=C(\C#N)c2nnc(N3CCOCC3)n2-c2ccccc2)ccc1O | 5.8 µM [falling, partial curve, poor fit] |  |
| COC(=O)Cn1ncc2c3ccccc3n(C)c2c1=O | 20 µM [rising, single point] |  |
| O=C(CCN1C(=O)/C(=C/C=C/c2ccccc2)SC1=S)Nc1cccnc1 | 1.84 µM [falling, full curve] |  |
| Cc1cc(/C=C2/NC(=O)NC2=O)c(C)n1-c1ccc(N2CCOCC2)cc1 | 35.5 µM [rising, partial curve, poor fit] |  |
| COC(=O)c1sccc1NC(=O)c1c(-c2ccccc2)noc1C | 14.6 µM [rising, partial curve, poor fit] |  |
| CCCCSCCCNC(=O)CS(=O)Cc1nc(-c2cccc(C)c2)oc1C (stereo unspecified) | 18.4 µM [falling, single point] |  |
| Cc1ccsc1C(=O)Nc1nnc(-c2ccco2)o1 | 9.2 µM [falling, partial curve] |  |
| CC(C)c1cc(-c2cc(-c3ccc(Cl)cc3)on2)nc(NCC2CC2)n1 | 25.1 µM [rising, partial curve, poor fit] |  |
| O=C(Nc1ccc(Cl)cc1)c1ccc2nsnc2c1 | 2.82 µM [falling, full curve, poor fit] |  |
| CC(=O)Nc1ccc(S(=O)(=O)CCC#N)cc1 | 16.4 µM [rising, single point] |  |
| Cn1cc(Br)c(C(=O)N/N=C/c2cccc(OC3CSC3)c2)n1 | 11.6 µM [falling, partial curve] |  |
| CC(=O)c1sc(-c2ccc(Cl)cc2)nc1C | 3.55 µM [rising, full curve, poor fit] |  |
| Cc1ccc(O)c(CCc2ccc(O)cc2)n1 | 5.01 µM [falling, single point] |  |
| CCOc1ccc(-c2nnn(CC(=O)NCc3ccco3)n2)cc1 | 17.8 µM [rising, single point] |  |
| Cc1ccc(-n2ncc(C(=O)N3CCc4ccccc4C3)c2NC(=O)c2ccco2)cc1C | 5.17 µM [rising, full curve] |  |
| Cc1ccc(NC(=O)CN(C)C(=O)CNC(=O)c2ccc3c(c2)OCO3)cc1 | 20.6 µM [rising, single point] |  |
| COc1cc(NC2c3ccccc3C(=O)N2Cc2ccccc2Cl)cc(OC)c1 (stereo unspecified) | 14.1 µM [falling, single point] |  |
| COc1cc(CNCc2ccccn2)ccc1OCc1ccc(Cl)cc1 | 1.3 µM [falling, full curve, poor fit] |  |
| NC(=O)CSc1nnc(-c2cnccn2)n1-c1ccccc1 | 23.1 µM [falling, single point] |  |
| COc1ccc(C2(CNC(=O)c3cc([N+](=O)[O-])cc([N+](=O)[O-])c3)CCCC2)cc1OC | 29.1 µM [falling, single point] |  |

Among those listed so far, 2 contain a CF3 group:

| Compound | AC50 [1] | AC50 [2] |
| --- | --- | --- |
| NC(=O)CCCn1c(C(=O)c2ccc(Cl)cc2)c2ccc(C(F)(F)F)cc2[n+]1[O-] | 1.03 µM [falling, full curve, poor fit] |  |
| COc1ccc(/C=C/C(=O)Nc2ccccc2C(F)(F)F)cc1 | 2.06 µM [falling, full curve] |  |

The list continues:

| Compound | AC50 [1] | AC50 [2] |
| --- | --- | --- |
| Cc1cc(OCC(=O)Nc2ccncc2)c(C)cc1Br | 6.51 µM [rising, single point] |  |
| CSC1=C(C#N)C(c2ccccc2Cl)C(C(C)=O)=C(C)N1 (stereo unspecified) | 11.6 µM [falling, partial curve, poor fit] |  |
| Clc1ccc(C(Cn2ccnc2)OCc2c(Cl)cccc2Cl)c(Cl)c1 (stereo unspecified) | 20.6 µM [falling, single point] |  |
| Cc1ccccc1C(=O)NNC(=O)CSc1nc(-c2ccccc2)cc(=O)[nH]1 | 2.82 µM [falling, partial curve] |  |
| Cc1cccc2c1-c1sc(C(=O)NCCCN3CCc4ccccc4C3)cc1CO2 | 15.8 µM [falling, partial curve] | 20 µM [rising, partial curve, poor fit] |
| Cc1ccc(NC(=O)c2nc[nH]c2C(=O)NCCCCNC(=O)c2[nH]cnc2C(=O)Nc2ccc(C)cc2)cc1 | 0.00411 µM [rising, full curve, poor fit] |  |
| CCS(=O)(=O)CCSC(=N)N | 0.146 µM [falling, full curve, poor fit] |  |
| Oc1ccc(Cl)cc1-c1cc(-c2cccc(Br)c2)n[nH]1 | 11.6 µM [falling, single point] |  |
| COc1ccc2nc(/N=C(\N)NC(=O)Nc3ccccc3)nc(C)c2c1 | 2.91 µM [rising, partial curve, poor fit] |  |
| Oc1ccc(Br)cc1C=Nc1cccn2cc(-c3ccccc3)nc12 | 14.1 µM [falling, single point] |  |
| COc1cc(NC(=O)COC(=O)Cc2ccc(-c3ccccc3)cc2)cc(OC)c1 |  | 23.1 µM [falling, partial curve, poor fit] |
| CCCCNc1ccccc1C(=O)OCC(=O)Nc1ccc(S(N)(=O)=O)cc1 | 16.4 µM [falling, partial curve, poor fit] |  |
| O=C(CN1CCOCC1)N/N=C/c1cc2ccccc2nc1Cl | 16.4 µM [rising, partial curve, poor fit] |  |
| C=CCSC1=C(C#N)C(c2cc(Br)c(O)c(OC)c2)CC(=O)N1 (stereo unspecified) | 29.1 µM [falling, single point] |  |
| Cc1nn2c(c1-c1ccccc1)NC1=C(C(=O)CCC1)C2c1ccccc1 (stereo unspecified) | 14.1 µM [falling, single point] |  |
| O=C(/C=C/c1ccccc1[N+](=O)[O-])Nc1cccnc1 | 6.51 µM [rising, single point] |  |
| CCC(=O)OC1(C(=O)CCl)[C@@H](C)C[C@H]2[C@@H]3CCC4=CC(=O)C=C[C@]4(C)[C@@]3(F)[C@@H](O)C[C@@]21C (stereo partly specified) | 11.6 µM [falling, single point] |  |
| CC(C)CCn1c(=O)c(C(=O)N/N=C/c2cccc(F)c2)c(O)c2ccccc21 | 18.4 µM [falling, partial curve, poor fit] |  |
| O=C1c2ccccc2C(=O)C1(O)O | 29.1 µM [rising, single point] | 29.1 µM [falling, single point] |
| CC(NC(=O)C12CC3CC(CC(C3)C1)C2)C(=O)N/N=C/C1=C(N2CCOCC2)C(=C\c2ccccc2)/CC1 (stereo unspecified) | 2.91 µM [falling, partial curve] |  |
| CCOC(=O)c1c(-c2ccc(OC)cc2)csc1/N=C/C1=C(O)CCCC1=O | 25.9 µM [falling, partial curve] |  |

Structural class: the compounds so far containing a nitro group on carbon

| Compound | AC50 [1] | AC50 [2] |
| --- | --- | --- |
| COc1ccc(C2(CNC(=O)c3cc([N+](=O)[O-])cc([N+](=O)[O-])c3)CCCC2)cc1OC | 29.1 µM [falling, single point] |  |
| O=C(/C=C/c1ccccc1[N+](=O)[O-])Nc1cccnc1 | 6.51 µM [rising, single point] |  |

Source: PubChem BioAssay AID493014 (National Center for Advancing Translational Sciences (NCATS), 2011)
